# Data taken from PubChem BioAssay AID504834 (National Center for Advancing Translational Sciences (NCATS), 2011).
# Among all 320,000 compounds or so, about 22,000 (6.9%) were called active. Inconclusive means that the source gave no clear call. Such entries were picked first, then a sample of the others. The call rests on the fitted dose curve; in most records, active means well fitted inhibition curve with a large enough effect; inconclusive means small, poorly fitted or top-dose-only effect, or another doubt; inactive means no such curve, though single readings can be large or run the other way. Potencies of inconclusive entries are doubtful fits and often do not repeat.
# Assay: Primary qHTS for delayed death inhibitors of the malarial parasite plastid, 96 hour incubation
# Conditions: P. falciparum luciferase reporter growth; series mostly up to 28.7 µM
# Summary of the method: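 Two parasite generations (96 h, 37 C, 5% CO2) of compound exposure in infected erythrocytes (0.05% parasitemia, 2% hematocrit). Luciferase-reporter P. falciparum; decreased luminescence indicates inhibited growth, aimed at apicoplast-acting delayed death.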
# Potency means the concentration at half of the fitted maximal effect.
row,Structure (SMILES),Potency
1,Cc1cccc(Nc2ccc(NCc3ccccc3)nn2)c1,"inconclusive: 4.65 µM [inhibitor, partial curve, poor fit]"
2,Cc1cc(C)c(C)c(S(=O)(=O)N2CCC(C(=O)NC3=NCCS3)CC2)c1C,"inconclusive: 13.1 µM [inhibitor, single point]"
3,COc1cc(OC)nc(S(C)(=O)=O)n1,active: 11.7 µM
4,CSc1ccc(S(=O)(=O)N2CCC(C(=O)NCCc3ccccc3)CC2)cc1,"inconclusive: 18.5 µM [inhibitor, single point]"
5,Cc1onc(-c2ccccc2)c1-c1nnc(CN2CCN(S(=O)(=O)c3ccccc3)CC2)o1,"inconclusive: 8.28 µM [inhibitor, partial curve, poor fit]"
6,O=C(NC(=S)Nc1ccc(O)cc1)C1CCCC1,inactive
7,CCOC(=O)c1[nH]c2ccccc2c1NC(=S)Nc1cccc(C)c1C,inactive
8,CCOc1ccc(NC(=O)C2CCC(CNc3c(N4CCOCC4)c(=O)c3=O)CC2)cc1 (stereo not given),"inconclusive: 18.5 µM [inhibitor, single point]"
9,O=C(Nc1cccc(Cl)c1)Nc1nnc(CSCCOc2ccc(Cl)cc2)s1,"inconclusive: 11.7 µM [inhibitor, single point]"
10,COc1ccc(Cn2nnc3c(=O)[nH]c(C(=O)NCCc4ccc(F)cc4)nc32)cc1OC,"inconclusive: 10.4 µM [inhibitor, partial curve, poor fit]"
11,CCn1ncc(Br)c1C(=O)Nc1ccccc1C(F)(F)F,"inconclusive: 1.85 µM [inhibitor, full curve]"
12,O=C(CC1CC2CCC1C2)N1CCN(S(=O)(=O)c2ccccc2C(F)(F)F)CC1 (stereo not given),"inconclusive: 10.4 µM [inhibitor, single point]"
13,Cc1ccc2nc(N(CCN(C)C)C(=O)/C=C/c3cccs3)sc2c1,"inconclusive: 14.7 µM [inhibitor, single point]"
14,COc1ccc(NS(=O)(=O)c2ccc3c(c2)N(C(C)=O)CCS3)cc1,"inconclusive: 18.5 µM [inhibitor, single point]"
15,O=C(Nc1nnc(CCc2ccccc2)s1)c1ccccc1,"inconclusive: 18.5 µM [inhibitor, single point]"
16,N#C/C(=C\c1ccc(F)cc1)C(=O)Nc1ccccn1,inactive
17,Oc1ccc2ccccc2c1C=Nc1ccccc1,"inconclusive: 18.5 µM [inhibitor, single point]"
18,COC(=O)c1cc(C(=O)Nc2ccc(C)cn2)cc([N+](=O)[O-])c1,active: 11.7 µM
19,COC(=O)/C=C1/S/C(=N/N=C/c2ccco2)NC1=O,"inconclusive: 6.57 µM [inhibitor, partial curve]"
20,CCN1CCN(c2oc(-c3ccccc3C)nc2S(=O)(=O)c2ccccc2)CC1,active: 9.28 µM
21,Cc1ccccc1NC(=O)CCN1C(=O)c2ccccc2C1=O,"inconclusive: 14.7 µM [inhibitor, partial curve, poor fit]"
22,CCc1cccc(CC)c1NC(=O)C1CN(S(=O)(=O)c2ccccc2)CCN1S(=O)(=O)c1ccccc1 (stereo not given),"inconclusive: 11.7 µM [inhibitor, single point]"
23,O=c1c2ccccc2nc(/C=C/c2ccc(O)c(O)c2)n1-c1ccccc1,inactive
24,O=C(NNc1cc(N2CCOCC2)nc(N2CCOCC2)n1)c1ccc(Cl)c(Cl)c1,inactive

row,Structure (SMILES),Potency
1,C=CC[C@H]1CC(C)=C[C@H](CC=C)N1,"inconclusive: 9.28 µM [inhibitor, partial curve, poor fit]"
2,O=C1c2cccnc2C(=O)N1Cc1ccc(S(=O)(=O)N2CCOc3ccc(Cl)cc32)cc1,"inconclusive: 16.5 µM [inhibitor, single point]"
3,O=C(Nc1ccccc1)Nc1nnc(CSCc2ccccc2Cl)s1,"inconclusive: 18.5 µM [inhibitor, single point]"
4,CCOc1ccc(C2=Nn3c(nnc3-c3cccnc3)SC2)cc1,"inconclusive: 2.62 µM [inhibitor, single point]"
5,CC(C)Cc1nnc(NC(=O)Cc2ccccc2[N+](=O)[O-])s1,"inconclusive: 13.1 µM [inhibitor, partial curve, poor fit]"
6,COCC(=O)Nc1c(C(=O)Nc2cccc(OC)c2)oc2ccccc12,inactive
7,CC1CCCCN1C(=O)c1ccc(CS(=O)(=O)Cc2ccccc2)cc1 (stereo not given),"inconclusive: 9.28 µM [inhibitor, single point]"
8,CC1CCN(C(=O)c2cc(Cl)nc3ccccc23)CC1,inactive
9,COC(=O)C1=C(c2ccc(-c3ccccc3)c(F)c2)C[C@@H]2CC[C@H]1N2C(=O)N1CCOCC1,"inconclusive: 11.7 µM [inhibitor, partial curve, poor fit]"
10,CN1CCN(C(=S)c2cn(Cc3cccc(F)c3)c3ccccc23)CC1,"inconclusive: 11.7 µM [inhibitor, partial curve, poor fit]"
11,C/C(=N\NC(=O)C1CC1c1ccccc1)c1cccc([N+](=O)[O-])c1 (stereo not given),active: 8.28 µM
12,CCc1cccc2c(=O)c(C(=O)N3CCOCC3)c[nH]c12,"inconclusive: 11.7 µM [inhibitor, partial curve, poor fit]"
13,O=C(CSc1n[nH]c(-c2ccc(S(=O)(=O)N3CCCCC3)cc2)n1)Nc1nccs1,inactive
14,COc1ccc(-c2nc(N)ncc2-c2ccc(Cl)cc2)c(O)c1,"inconclusive: 11.7 µM [inhibitor, single point]"
15,COc1ccc(C2=[N+]([O-])C(C)(C)C(c3ccccc3)=N2)cc1,"inconclusive: 1.47 µM [inhibitor, full curve]"
16,N#Cc1ccc(C(=O)Nc2ccc3ccccc3c2)cc1,inactive
17,CCCn1c(C(C)Nc2nc(-c3ccc(C)cc3)cs2)nc2ccccc21 (stereo not given),active: 9.28 µM
18,COC(=O)Cc1cc(=O)n2[nH]c(C(F)(F)F)nc2n1,"inconclusive: 0.0415 µM [inhibitor, full curve]"
19,CC(C)(C)c1ccc(C(=O)N2CCC(NC(=O)c3ccccc3)CC2)cc1,"inconclusive: 4.15 µM [inhibitor, single point]"
20,C1COCCNCCOCCOCCOCCN1,"inconclusive: 11.7 µM [inhibitor, single point]"
21,Cc1ccc(-c2noc(CCC(=O)NCC3CCCO3)n2)cc1 (stereo not given),inactive
22,COc1cccc(CNC(=O)c2ccc(NC(=O)C3CCCO3)cc2)c1 (stereo not given),inactive
23,COc1ccc(C/C(C)=N/NC(=O)c2ccc(Cl)cc2)cc1,inactive
24,O=C(Nc1ccc2oc(-c3ccccc3)nc2c1)c1ccncc1,"inconclusive: 14.7 µM [inhibitor, partial curve, poor fit]"

row,Structure (SMILES),Potency
1,COc1ccc(S(=O)(=O)Nc2ccccc2C(=O)N2CCCCC2)cc1C,"inconclusive: 10.4 µM [inhibitor, single point]"
2,CCCCNS(=O)(=O)c1ccc2nc(-c3cccnc3)cc(C(=O)NCCCN(CC)CC)c2c1,"inconclusive: 18.5 µM [inhibitor, partial curve, poor fit]"
3,O=C(N/N=C/C=C\c1ccco1)c1ccccn1,inactive
4,COc1ccc(CNC(=O)C2CCN(S(C)(=O)=O)CC2)c(OC)c1,inactive
5,O=C(Cn1c(=O)n(CC2CCCO2)c(=O)c2ccccc21)c1ccccc1 (stereo not given),"inconclusive: 2.94 µM [inhibitor, full curve]"
6,O=C(OCCCN=C1NS(=O)(=O)c2ccccc21)C1CC(=O)N(c2ccc(Cl)cc2)C1 (stereo not given),"inconclusive: 18.5 µM [inhibitor, single point]"
7,CCCn1nc2cc(C(=O)NC3CCCc4ccccc43)ccc2c1OCC (stereo not given),"inconclusive: 18.5 µM [inhibitor, single point]"
8,CN1CCN(CCCNC(=O)c2ccc(CS(=O)(=O)c3ccc(Br)cc3)o2)CC1,active: 8.28 µM
9,Cc1c(NC(=O)COc2ccc(C(C)C)cc2)c(=O)n(-c2ccccc2)n1C,active: 13.1 µM
10,Cc1cc(Nc2ccccc2)c2c([N+](=O)[O-])cc(C)c(C)c2n1,"inconclusive: 18.5 µM [inhibitor, single point]"
11,COc1cccc(NC(=O)CN2C(=O)CSc3ccc(S(=O)(=O)N4CCOCC4)cc32)c1,"inconclusive: 13.1 µM [inhibitor, single point]"
12,CCC1(c2ccccc2)NC(=O)N(CC(=O)Nc2cc(S(=O)(=O)N3CCCCCC3)ccc2OC)C1=O (stereo not given),active: 7.38 µM
13,Cn1ccnc1C(O)(c1nnc(-c2ccccc2)o1)C(F)(F)F (stereo not given),"inconclusive: 0.0415 µM [inhibitor, full curve, poor fit]"
14,Cc1ccc(C(C)C)c(OCCCN2CC(C)OC(C)C2)c1 (stereo not given),"inconclusive: 18.5 µM [inhibitor, single point]"
15,COCCN(CC1CCCN(C2Cc3ccccc3C2)C1)C(=O)c1cccs1 (stereo not given),inactive
16,CCOc1ccccc1NC(=S)Nc1ccccc1F,active: 13.1 µM
17,COCCNC(=O)c1ccc2c(=O)n(Cc3ccco3)c(SCC(=O)NC3CCCCC3)nc2c1,"inconclusive: 9.28 µM [inhibitor, single point]"
18,COc1cccc(C(=O)Nc2nc(C)cs2)c1,inactive
19,Cc1ccc(Sc2ncccc2C(=O)NCC(c2ccc(F)cc2)N2CCOCC2)cc1C (stereo not given),"inconclusive: 5.22 µM [inhibitor, partial curve, poor fit]"
20,Oc1ccccc1N1CCN(c2ccc3ccccc3n2)CC1,inactive
21,COc1ccc(Cl)cc1NC(=O)CN(C)C(=O)c1cn(-c2ccccc2)nc1-c1cccnc1,active: 10.4 µM
22,Cn1c(N)c(C(=O)COC(=O)c2ccc3c(c2)C(=O)N(c2ccc(Cl)cc2)C3=O)c(=O)n(C)c1=O,inactive
